We go through one molecule from publication PMC9965216.

These are yes or no findings as the source states them, for the method shown. Binding calls can cover weak binding; strength is not graded here.

The target in this test is GroEL14-GLuc (tetradecameric GroEL14 with incorporated Gaussia princeps luciferase) (E. coli | Gaussia princeps). The experiment in a line: FRET or BRET; BRET from purified GroEL14-GLuc (coelenterazine) to fluorescein-labeled denatured proteins; bioluminescence spectra; both purified. A general note: Bioluminescence resonance energy transfer reports proximity on the nanometre scale.

B1: fluorescein-labeled denatured malate dehydrogenase (enzyme, UniProt P00346 25-338)
chain: AKVAVLGASGGIGQPLSLLLKNSPLVSRLTLYDIAHTPGVAADLSHIETRATVKGYLGPEQLPDCLKGCDVVVIPAGVPRKPGMTRDDLFNTNATIVATLTAACAQHCPDAMICIISNPVNSTIPITAEVFKKHGVYNPNKIFGVTTLDIVRANAFVAELKGLDPARVSVPVIGGHAGKTIIPLISQCTPKVDFPQDQLSTLTGRIQEAGTEVVKAKAGAGSATLSMAYAGARFVFSLVDAMNGKEGVVECSFVKSQETDCPYFSTPLLLGKKGIEKNLGIGKISPFEEKMIAEAIPELKASIKKGEEFVKNMK
modifications: fluorescein (5-(and 6)-carboxyfluorescein succinimidyl ester)
With B1, the binding entry is reported as “binds”.
